The list shows a part of the results, in another mix than the full data. The data scatter; read single values as rough.
Compound: COC(=O)/C=C/c1ccccc1 [methyl cinnamate]
Experiment: log2 ratio of iodoacetamide-alkyne labeling of the cysteine site, DMSO over compound (competition); higher = stronger covalent engagement of the cysteine by the compound, active = 1 or more
Conditions: 500 µM; treatment time 1 h; system: HEK293T cell lysate
Summary of the method: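 The log2 competition ratio per cysteine is defined as mean reporter intensity in control channels over mean reporter intensity in compound channels. Lysate from HEK293T cells (2 mg/mL) received electrophile (500 µM) or vehicle for 1 h at ambient temperature, followed by iodoacetamide alkyne for 1 h. Samples were clicked to sCIP-TMT reagents, pooled, trypsin-digested overnight at 37 °C, streptavidin-enriched, acid-eluted and run on Orbitrap Eclipse LC-MS/MS with FAIMS, with quantification in FragPipe. Three replicates with duplicate channels were used, and any cysteine quantified in only one replicate was excluded.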

log2 ratio of iodoacetamide-alkyne labeling, inactive:
TARDBP C39 (UniProt Q13148) 0.0573
DHX9 C12 (UniProt Q08211) -0.0348
UniProt Q08170_C61 -0.0322
TP53BP1 C1375 (UniProt Q12888) 0.333
TRAF2 C107 (UniProt Q12933) 0.166
PRDM2 C718 (UniProt Q13029) 0.242
TRIM28 C717 (UniProt Q13263) -0.117
TP53BP1 C1159 (UniProt Q12888) -0.0303
GFPT1 C264 (UniProt Q06210) 0.0392
UniProt Q03164_C2159 0.513
AKAP12 C578 (UniProt Q02952) 0.442
ILF3 C278 (UniProt Q12906) 0.106
ATM C755 (UniProt Q13315) 0.0955
DHX9 C242 (UniProt Q08211) -0.0444
PTPN13 C937 (UniProt Q12923) 0.338
UBE3A C140 (UniProt Q05086) -0.245
UniProt Q0D2I5_C349 0.304
ACACA C1297 (UniProt Q13085) 0.0974
UBE3A C198 (UniProt Q05086) 0.308
GTF3C1 C544 (UniProt Q12789) 0.153
AKAP12 C470 (UniProt Q02952) 0.17
GTF3C1 C1981 (UniProt Q12789) 0.162
CBX3 C177 (UniProt Q13185) 0.144
PABPC4 C132 (UniProt Q13310) 0.0719
GABPA C338 (UniProt Q06546) 0.257
SCAP C875 (UniProt Q12770) 0.269
UniProt Q12824_C147 -0.0891
PTPN11 C573 (UniProt Q06124) 0.366
CEBPZ C282 (UniProt Q03701) 0.14
UBE3A C843 (UniProt Q05086) 0.0284
TARDBP C244 (UniProt Q13148) 0.202
TRAF2 C287 (UniProt Q12933) 0.092
VAC14 C719 (UniProt Q08AM6) -0.0396
PRDX1 C83 (UniProt Q06830) 0.0489
ILK C239 (UniProt Q13418) 0.231
ACACA C2075 (UniProt Q13085) 0.0138
EEF1A2 C326 (UniProt Q05639) 0.338
GLO1 C61 (UniProt Q04760) 0.11

A portion from the list above:
log2 ratio of iodoacetamide-alkyne labeling, inactive:
EEF1A2 C326 (UniProt Q05639) 0.338
GLO1 C61 (UniProt Q04760) 0.11
